In the supplement of paper PMC7877785:
± gives the uncertainty stated by the source. The uncertainty is large for many entries.

Test: self-splicing fitness, log relative to wild type (ln ratio); higher = more splicing; Tetrahymena group I intron in knt gene, E. coli kanamycin selection, DiMSum; sequences stand for … in CUCUCU…GGAGGGAAAAGUUAUCAGGCAUGCACCUGGUAGCUAGUCUUUAAACCAAUAGAUUGCAUCGGUUUAAAAGGCAAGACCGUCAAAUUGCGGGAAAGGGGUCAACAGCCGUUCAGUACCAAGUCUCAGGGGAAACUUUGAGAUGGCCUUGCAAAGGGUAUGGUAAUAAGCUGACGGACAUGGUCCUAACCACGCAGCCAAGUCCUAAGUCAACAGAUCUUCUGUUGAUAUGGAUGCAGUUCACAGACUAAAUGUCGGUCGGGGAAGAUGUAUUCUUCUCAUAAGAUAUAGUCGGACCUCUCCUUAAUGGGAGCUAGCGGAUGAAGUGAUGCAACACUGGAGCCGCUGGGAACUAAUUUGUAUGCGAAAGUAUAUUGAUUAGUUUUGGAGUACUCGUGGUCG
How it was run: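 Colonies from six replicate transformations of E. coli BL21(DE3) were pooled and amplicon-sequenced on an Illumina HiSeq 2500. The library placed an intron with all eight P1ex-region nucleotides randomised inside the knt kanamycin-resistance gene on pET-22b(+), and cells grew overnight at 37°C or 30°C on LB agar with or without 25 μg/mL kanamycin (plus 100 μg/mL carbenicillin, 50 μM IPTG, 0.2% rhamnose). Fitness is the DiMSum error-weighted combination of wild-type-normalised replicate fold changes, kanamycin versus none.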

Row | Sequence | self-splicing fitness (ln) (30 °C) | self-splicing fitness (ln) (37 °C)
1 | CCUGAGCAAUAUUACGUCUC | -4.58 ± 0.72 | 
2 | CUAAAGCAAUAUUACGCAAU | -3.94 ± 0.21 | -2.97 ± 0.24
3 | UGAUAGCAAUAUUACGGUAU | -3.75 ± 0.22 | -1.92 ± 0.18
4 | AGUGAGCAAUAUUACGACCG | -2.53 ± 0.66 | 
5 | UUCCAGCAAUAUUACGAAAC |  | -2.29 ± 0.35
6 | AUCUAGCAAUAUUACGCCAA | -2.58 ± 0.61 | 
7 | CGUAAGCAAUAUUACGCCUA | -3.17 ± 0.62 | 
8 | GGCCAGCAAUAUUACGCGGU | -3.63 ± 0.46 | -2.53 ± 0.34
9 | GAACAGCAAUAUUACGUUGA | -1.47 ± 0.066 | -1.02 ± 0.077
10 | CCUGAGCAAUAUUACGUAUC | -4.46 ± 0.59 | 
11 | UAAAAGCAAUAUUACGCGGA | -1.8 ± 0.08 | -0.32 ± 0.082
12 | GUAAAGCAAUAUUACGAUUC | 0.475 ± 0.08 | 0.115 ± 0.091
13 | GAUGAGCAAUAUUACGAUGU | -2.63 ± 0.25 | -2.15 ± 0.35
14 | AGUGAGCAAUAUUACGUCGC |  | -2.76 ± 0.75
15 | CUCUAGCAAUAUUACGGUGC |  | -3.45 ± 0.72
16 | UGUGAGCAAUAUUACGAUAU | -2.31 ± 0.22 | -1.66 ± 0.37
17 | GGAGAGCAAUAUUACGCUGU | -3.8 ± 0.52 | -1.88 ± 0.6
18 | UGGAAGCAAUAUUACGGAGC | -2.42 ± 0.64 | 
19 | ACCAAGCAAUAUUACGGUAU | -3.45 ± 0.13 | -0.475 ± 0.094
20 | CUUAAGCAAUAUUACGCGCA |  | -2.8 ± 0.74
21 | GGACAGCAAUAUUACGACGU | -0.177 ± 0.06 | 0.587 ± 0.075
22 | AGGGAGCAAUAUUACGCAAG | -3.7 ± 0.73 | 
23 | UGGGAGCAAUAUUACGAAUU | -3.82 ± 0.72 | 
24 | AGGAAGCAAUAUUACGUUGA | -3.28 ± 0.54 | 

Row | Sequence | self-splicing fitness (ln) (30 °C) | self-splicing fitness (ln) (37 °C)
25 | UCAUAGCAAUAUUACGCCCC | -2.25 ± 0.56 | -2.08 ± 1.1
26 | UCCUAGCAAUAUUACGAUCC |  | -2.55 ± 0.76
27 | CGAGAGCAAUAUUACGUCCU |  | -2.01 ± 0.84
28 | GGCCAGCAAUAUUACGCAGG | -5.87 ± 0.58 | 
29 | AACGAGCAAUAUUACGUCUU | -1.33 ± 0.074 | -0.279 ± 0.093
30 | AGGAAGCAAUAUUACGAUAA | -1.9 ± 0.21 | -1.33 ± 0.29
31 | UUCAAGCAAUAUUACGUACC | -3.54 ± 0.73 | 
32 | UUUGAGCAAUAUUACGGGGU | -3.42 ± 0.54 | 
33 | UAGGAGCAAUAUUACGGAUA | -2.09 ± 0.29 | -1.46 ± 0.23
34 | AGGGAGCAAUAUUACGGCAC | -3.85 ± 0.61 | 
35 | UCGGAGCAAUAUUACGCUAA |  | -1.85 ± 0.86
36 | GCGGAGCAAUAUUACGUGCU | -3.8 ± 0.53 | -2.74 ± 0.54
37 | UAGCAGCAAUAUUACGGGUC | -5.23 ± 0.72 | 
38 | UGCUAGCAAUAUUACGUUAC | -5.2 ± 1 | 
39 | AUGCAGCAAUAUUACGUGGG | -5.24 ± 0.51 | 
40 | AGUCAGCAAUAUUACGCCGG |  | -0.834 ± 0.67
41 | CUUUAGCAAUAUUACGAGUU | -3.5 ± 0.52 | 
42 | AGCGAGCAAUAUUACGCUCC |  | -1.29 ± 1.2
43 | GAGUAGCAAUAUUACGAGAA | -2.15 ± 0.83 | -1.64 ± 0.7
44 | GGGGAGCAAUAUUACGCAGC | -1.52 ± 1.2 | -0.557 ± 0.56
45 | GAUUAGCAAUAUUACGCCAU | -3.23 ± 0.54 | 
46 | AAGUAGCAAUAUUACGCUGC | -4.46 ± 1 | 
47 | AAAGAGCAAUAUUACGCAGA | -1.5 ± 0.51 | -2.17 ± 0.56
48 | CGGGAGCAAUAUUACGGCCG |  | -3.32 ± 0.74

Numbers 28 to 32 from above:
Row | Sequence | self-splicing fitness (ln) (30 °C) | self-splicing fitness (ln) (37 °C)
28 | GGCCAGCAAUAUUACGCAGG | -5.87 ± 0.58 | 
29 | AACGAGCAAUAUUACGUCUU | -1.33 ± 0.074 | -0.279 ± 0.093
30 | AGGAAGCAAUAUUACGAUAA | -1.9 ± 0.21 | -1.33 ± 0.29
31 | UUCAAGCAAUAUUACGUACC | -3.54 ± 0.73 | 
32 | UUUGAGCAAUAUUACGGGGU | -3.42 ± 0.54 | 

More records

Row | Sequence | self-splicing fitness (ln) (30 °C) | self-splicing fitness (ln) (37 °C)
49 | UUUAAGCAAUAUUACGGAUC |  | -2.41 ± 0.64
50 | UAUAAGCAAUAUUACGAAAA | -1.72 ± 0.31 | -1.27 ± 0.31
51 | GUGGAGCAAUAUUACGCGCU | -3.77 ± 1 | -0.934 ± 0.61
52 | ACAGAGCAAUAUUACGCCUU | -3.76 ± 0.42 | -1.9 ± 0.3
53 | GAGGAGCAAUAUUACGAAUU |  | -3.2 ± 0.52
54 | UCAUAGCAAUAUUACGCACU | -3.19 ± 0.25 | -3.18 ± 0.32
55 | CAAGAGCAAUAUUACGUAAC | -4.63 ± 0.59 | 
56 | GCUGAGCAAUAUUACGAAGC | -3.89 ± 1 | -2.89 ± 1.1
57 | UAGGAGCAAUAUUACGAUCC |  | -1.29 ± 1.2
58 | UAGUAGCAAUAUUACGGAAU | -4.07 ± 0.61 | 
59 | GGCUAGCAAUAUUACGUAGU | -3.29 ± 0.17 | -2.04 ± 0.2
60 | GACGAGCAAUAUUACGUCAC | -3.96 ± 1 | -2.12 ± 0.58
61 | CUGAAGCAAUAUUACGAUCU | -3.3 ± 0.16 | -3.2 ± 0.28
62 | GGCAAGCAAUAUUACGCCAC |  | -3.37 ± 0.73
63 | GGAUAGCAAUAUUACGUUUC | -3.64 ± 1 | 
64 | GUACAGCAAUAUUACGGGGC | -3.74 ± 0.35 | -2.77 ± 0.47
65 | GGAUAGCAAUAUUACGAAAA |  | -0.728 ± 0.54
66 | CGGGAGCAAUAUUACGCGCU |  | -2.55 ± 0.62
67 | CUGCAGCAAUAUUACGCUCA | -3.88 ± 0.73 | 
68 | UUGCAGCAAUAUUACGUCAC | -2.71 ± 0.55 | 
69 | UUGUAGCAAUAUUACGGGGG |  | -1.94 ± 0.79
70 | UGGCAGCAAUAUUACGGUGA | -0.428 ± 0.097 | 0.214 ± 0.12
71 | GAUUAGCAAUAUUACGCCCU |  | -0.471 ± 0.64
72 | GGAGAGCAAUAUUACGACAG | -3.17 ± 1 | -0.44 ± 0.82

Row | Sequence | self-splicing fitness (ln) (30 °C) | self-splicing fitness (ln) (37 °C)
73 | AUAGAGCAAUAUUACGUCCC |  | -2.83 ± 0.61
74 | UGCGAGCAAUAUUACGCCUC |  | -2.48 ± 1.1
75 | GGGGAGCAAUAUUACGGCUC | -3.4 ± 1.1 | 
76 | CCGAAGCAAUAUUACGGGCA | -4.65 ± 1 | 
77 | UCCCAGCAAUAUUACGAUAC | -2.17 ± 0.19 | -2.45 ± 0.44
78 | CUCAAGCAAUAUUACGUCCU | -4 ± 0.27 | -2.79 ± 0.19
79 | CAGUAGCAAUAUUACGGUCC | -4.04 ± 1.1 | -2.63 ± 0.76
80 | GAAGAGCAAUAUUACGUCAC | -4.88 ± 1 | 
81 | CACUAGCAAUAUUACGCCAC | -3.13 ± 0.63 | -1.95 ± 0.58
82 | UUGCAGCAAUAUUACGAGAC | -3.87 ± 0.59 | 
83 | CCUAAGCAAUAUUACGCCGC | -1.12 ± 0.76 | -1.62 ± 1.1
84 | ACGGAGCAAUAUUACGUGCU |  | -3.77 ± 0.73
85 | GAUUAGCAAUAUUACGCGCU | -1.18 ± 0.53 | 
86 | GUUGAGCAAUAUUACGCUGC | -2.7 ± 0.76 | 
87 | UCAUAGCAAUAUUACGCCAC | -3.54 ± 0.61 | -3.86 ± 1
88 | UUUUAGCAAUAUUACGGAAU | -3.97 ± 0.51 | 
89 | CCACAGCAAUAUUACGCGUU | -3.65 ± 0.092 | -2.91 ± 0.13
90 | UCGGAGCAAUAUUACGAUCA | -2.61 ± 0.53 | 
91 | AUUGAGCAAUAUUACGCCGC |  | -1.7 ± 0.67
92 | CUUAAGCAAUAUUACGAGCA | -4.13 ± 0.59 | -2.85 ± 0.53
93 | GGAGAGCAAUAUUACGCCCU |  | -1.11 ± 0.65
94 | CGAGAGCAAUAUUACGUCGU | -4.44 ± 0.59 | 
95 | UCAGAGCAAUAUUACGACGC | -3.7 ± 0.73 | 
96 | UUGUAGCAAUAUUACGCGAC | -2.82 ± 0.54 | 

Row | Sequence | self-splicing fitness (ln) (30 °C) | self-splicing fitness (ln) (37 °C)
97 | UAGGAGCAAUAUUACGCUUU | -2.54 ± 0.32 | -1.66 ± 0.29
98 | UGCGAGCAAUAUUACGGACU | -2.82 ± 0.6 | 
99 | CAUGAGCAAUAUUACGAGUU | -4.84 ± 0.51 | 
100 | GGAAAGCAAUAUUACGCCGG | -3.27 ± 0.53 | 
101 | UCGGAGCAAUAUUACGGCGC |  | -2.46 ± 0.79
102 | GUUAAGCAAUAUUACGUACC |  | -1.11 ± 0.9
103 | GAGCAGCAAUAUUACGUUGG | -0.945 ± 0.19 | -2.43 ± 0.23
104 | CCGAAGCAAUAUUACGACGA | -1.44 ± 0.12 | -0.711 ± 0.13
105 | CUCUAGCAAUAUUACGACUA | -2.83 ± 0.57 | 
106 | GUGCAGCAAUAUUACGCUAC | -3.08 ± 0.74 | -3.19 ± 0.6
107 | AUCGAGCAAUAUUACGCGAU |  | -1.37 ± 0.71
108 | CUGUAGCAAUAUUACGCAGC |  | -3.67 ± 0.52
109 | UCCAAGCAAUAUUACGCGCU | -2.67 ± 0.21 | -1.52 ± 0.23
110 | AUUUAGCAAUAUUACGGCAC |  | 0.656 ± 0.6
111 | UAUUAGCAAUAUUACGAUAC | -3.86 ± 0.53 | -1.13 ± 0.24
112 | CCACAGCAAUAUUACGAUGC | -3.7 ± 0.17 | -2.66 ± 0.21
113 | UCCCAGCAAUAUUACGCACC | -4.46 ± 1 | 
114 | UUGGAGCAAUAUUACGCGGA | -2.79 ± 1.2 | 
115 | GUUUAGCAAUAUUACGUCCC | 0.518 ± 1.1 | 0.0661 ± 0.63
116 | CGCGAGCAAUAUUACGGGAA | -3.74 ± 0.27 | -2.4 ± 0.29
117 | AGAGAGCAAUAUUACGCCUC |  | -2.15 ± 0.79
118 | GGGGAGCAAUAUUACGUCAC | -2.79 ± 1.2 | 
119 | GAUCAGCAAUAUUACGAGGC | -3.49 ± 0.52 | 
120 | GCAGAGCAAUAUUACGAGGU | -3.19 ± 0.82 | 
